Laboratory results as given in PubChem BioAssay AID2685 (National Center for Advancing Translational Sciences (NCATS), 2010).
Some of the results follow. Further columns of the screen follow, without active or inactive calls. Compounds called inactive in the main read-out are mostly missing here. The note in brackets gives the kind of curve behind each potency; many fits are weak.

Assay: qHTS Assay for Lipid Storage Modulators in Drosophila S3 Cells;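 on cell number change: cells counted by Cell Tracker Red CMTPX staining in the red channel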
Settings: BODIPY lipid droplet fluorescence, 18-24 h; for cell number change: measured here: cell count max response, cells fed with added oleic acid
Method in brief: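 Drosophila S3 cells got compounds at several concentrations plus oleic acid (400 uM solution). Laser-scanning cytometry with 488 nm excitation read lipid droplets at 500-530 nm and cells at 575-640 nm. Percent activity was relative to 20 uM Triacsin C.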

[1] = measured here: lipid fluorescence (Fed channel) AC50, cells fed with added oleic acid
[2] = measured here: cell number channel AC50, cells fed with added oleic acid

| Compound | AC50 [1] | AC50 [2] | cell number change [%] |
| --- | --- | --- | --- |
| Cc1cc(=O)[nH]c(SCC(=O)N2CCCC(C)C2)n1 (centres undefined) | 1.16 µM [falling, partial curve, poor fit] | – | – |
| COCC(=O)Nc1ccccc1-c1ccccc1 | 1.84 µM [rising, partial curve] | 1.64 µM [rising, partial curve] | – |
| COCCCNC(=S)N1CCN(C)CC1 | 23.1 µM [falling, partial curve, poor fit] | – | -10.1 |
| CC(=O)Nc1ccc(N(C(=O)Cc2c[nH]c3ccccc23)C(C(=O)NC2CCCCC2)c2ccco2)cc1 (centres undefined) | – | 0.92 µM [falling, full curve, poor fit] | -37.4 |
| CC(=O)c1ccc(NC(=O)C(C)OC(=O)c2ccc(Br)o2)cc1 (centres undefined) | – | – | -20.2 |
| COc1cccc(N2CCN(CC(=O)N3CCN(S(=O)(=O)c4ccc(Cl)cc4)CC3)CC2)c1 | 6.51 µM [falling, single point] | 25.9 µM [rising, single point] | 125 |
| COc1ccc(NC(=O)c2[nH]c(C)c(C(C)=O)c2C)cc1S(=O)(=O)N1CCOCC1 | 0.651 µM [falling, full curve, poor fit] | – | -12.3 |
| CCc1ccccc1NC(=O)CN(C)C(=O)CSc1nnc(Nc2ccc(C)cc2)s1 | 2.91 µM [rising, full curve, poor fit] | – | 20.4 |
| O=C(CN1CCN(C(=O)C2CCCO2)CC1)Nc1cc(Cl)ccc1Cl (centres undefined) | – | – | 7.08 |
| Cc1ccc(S(=O)(=O)N2CCCCC2)cc1NC(=O)COC(=O)Cc1ccc(Cl)cc1 | – | 1.3 µM [rising, partial curve] | 32.2 |
| O=C(Nc1nccs1)C1CCN(S(=O)(=O)c2cccnc2)CC1 | 0.184 µM [rising, partial curve] | – | 19.9 |
| O=C(NCc1cccc2[nH]ccc12)C1CCC(=O)N(CCc2ccc(Cl)cc2)C1 (centres undefined) | 0.366 µM [falling, full curve, poor fit] | – | 1.39 |
| CN1CC(=O)N(CC(=O)Nc2ccc(Br)cc2F)C1=O | 4.11 µM [rising, single point] | – | – |
| O=C(OCC(=O)N1CCCC1)c1c(Cl)cccc1Cl | 29.1 µM [rising, single point] | – | 19.4 |
| COCCN(C(=O)C1CC(=O)N(Cc2ccc(C)cc2)C1)c1c(N)n(CC(C)C)c(=O)[nH]c1=O (centres undefined) | 14.6 µM [falling, partial curve, poor fit] | 0.058 µM [falling, full curve, poor fit] | -6.28 |
| CCC(C)NC(=S)Nc1ccccc1OC (centres undefined) | – | 0.82 µM [rising, single point] | – |
| CC1S/C(=N/N=C/c2ccco2)N(Cc2ccc(F)cc2)C1=O (centres undefined) | – | 2.06 µM [rising, single point] | 19.7 |
| COc1ccccc1N(C(=O)Cn1nnc2ccccc21)C(C(=O)NCc1ccco1)c1ccc(C)o1 (centres undefined) | 6.51 µM [rising, single point] | 2.59 µM [rising, partial curve, poor fit] | 32.7 |
| CCCSc1ncnc2c1oc1ccccc12 | 6.51 µM [rising, single point] | – | -10.3 |
| CCOc1ccc(NC(=O)N2CCC(NC(=O)c3ccco3)CC2)cc1 | 6.51 µM [falling, single point] | – | -1.07 |

Full records as entered above:
CC1S/C(=N/N=C/c2ccco2)N(Cc2ccc(F)cc2)C1=O (centres undefined) in the list: AC50 [2]: 2.06 µM [rising, single point]; cell number change [%]: 19.7
CC(=O)Nc1ccc(N(C(=O)Cc2c[nH]c3ccccc23)C(C(=O)NC2CCCCC2)c2ccco2)cc1 (centres undefined) in the list: AC50 [2]: 0.92 µM [falling, full curve, poor fit]; cell number change [%]: -37.4

Remaining list, next part.

| Compound | AC50 [1] | AC50 [2] | cell number change [%] |
| --- | --- | --- | --- |
| CN(C)c1ccnc2sc(C(N)=O)c(N)c12 | 2.06 µM [rising, partial curve] | 2.59 µM [rising, partial curve] | – |
| C/C(=N\NC(=S)NCCc1ccccc1)c1ccc(Cl)cc1 | – | 29.1 µM [rising, single point] | 283 |
| CC(Nc1cccc2ccccc12)C(=O)N/N=C/c1ccccn1 (centres undefined) | 0.82 µM [rising, full curve] | 0.291 µM [rising, full curve, poor fit] | 38.7 |
| CCc1ccc(NC(=O)NCc2cccnc2)cc1 | 29.1 µM [falling, single point] | 0.651 µM [falling, full curve, poor fit] | -25.7 |
| COCCNC(=O)CN(C)S(=O)(=O)c1ccc(Br)cc1 | 6.51 µM [rising, full curve, poor fit] | – | -21.5 |
| CCN(C(=O)COc1ccc(C(=O)c2ccccc2)cc1)c1ccccc1 | – | – | 10.4 |
| O=C(N/N=C/C(Br)=C/c1ccccc1)c1ccccc1[N+](=O)[O-] | 16.4 µM [falling, partial curve] | 23.1 µM [falling, single point] | -41.2 |
| Cc1cc(C(=O)COC(=O)c2ccc3c(c2)NC(=O)CS3)c(C)n1CC1CCCO1 (centres undefined) | 0.00517 µM [falling, full curve, poor fit] | – | -21.4 |
| COc1ccc(CSc2nc(C)cc(C)c2S(C)(=O)=O)cc1 | – | – | 7.82 |
| Cc1ccc(NC(=O)CNc2ccc(Cl)c(Cl)c2)cc1S(=O)(=O)N(C)C | 32.6 µM [falling, partial curve, poor fit] | – | -7.16 |
| NC(=O)N=Nc1c2[nH]c3ccccc3nc-2c2ccccc12 | 5.8 µM [rising, single point] | 0.366 µM [rising, full curve, poor fit] | 10.9 |
| CNC(=O)c1ccc(NC(=O)c2cc(S(=O)(=O)N3CCOCC3)ccc2N2CCCC2)cc1 | 29.1 µM [rising, single point] | – | -8.17 |
| Cn1c(/C(C#N)=C(\O)c2ccc([N+](=O)[O-])s2)nc2ccccc21 | – | 1.3 µM [rising, full curve, poor fit] | 37.4 |
| COc1ccc(C)cc1C(=O)CCC(=O)NCCc1ccc(S(N)(=O)=O)cc1 | 6.51 µM [rising, single point] | – | -1.39 |
| Cc1ccccc1N1C(=O)C2CCCN2C1=S (centres undefined) | 2.31 µM [rising, partial curve] | 2.06 µM [rising, partial curve, poor fit] | -7.78 |
| CCCc1n[nH]c2c1/C(=N/O)CC(c1ccccc1)C2 (centres undefined) | – | 3.66 µM [rising, partial curve] | – |
| COc1ccc(S(=O)(=O)NCC(=O)O)cc1C(=O)NC1CCCCC1 | 6.51 µM [falling, single point] | 1.46 µM [rising, partial curve] | -33.3 |
| Cc1cc(C)nc(SCC2COc3ccccc3O2)n1 (centres undefined) | 2.06 µM [rising, full curve] | – | 0.141 |
| CCCN(CC(=O)Nc1ccccc1C)C(=O)C1CC(=O)N(c2ccccc2C(C)CC)C1 (centres undefined) | 29.1 µM [falling, single point] | – | 10.8 |

| Compound | AC50 [1] | AC50 [2] | cell number change [%] |
| --- | --- | --- | --- |
| CCn1c(SCC(=O)N/N=C/c2cccs2)nc2ccccc21 | – | – | 12.9 |
| COc1ccc(N2CCN(CCNC(=O)CCC(=O)NNc3nc4ccccc4c4nc(C)nn34)CC2)cc1 | 0.00517 µM [rising, full curve, poor fit] | – | -17.7 |
| Cn1c(SCc2ccc(F)cc2)nnc1-c1cnccn1 | 10.3 µM [rising, single point] | – | -9.94 |
| CCOc1ccccc1NC(=O)c1cccc(NC(=O)c2ccco2)c1 | 0.731 µM [rising, full curve] | 0.651 µM [rising, full curve] | – |
| Cc1ncsc1CCSc1nc2ccccc2c(=O)n1C | 6.51 µM [rising, partial curve] | 6.51 µM [rising, single point] | – |
| CCCCC(CC)C(=O)Nc1ccc(Cl)cn1 (centres undefined) | – | – | -8.05 |
| CCCCCCc1c(O)nc(SCCN(C)C)[nH]c1=O | – | – | -34.2 |
| CCOC(=O)c1sc(NC(=O)Cn2nnc3sc4c(c3c2=O)CCCC4)nc1C | 4.61 µM [rising, partial curve] | – | 14.2 |
| CCN1CCN(C(c2cccs2)C(C)NC(=S)Nc2cc(C)ccc2C)CC1 (centres undefined) | 2.91 µM [falling, full curve, poor fit] | – | -19.9 |
| COCCN(C(=O)c1cc(Cl)ccn1)c1c(N)n(Cc2ccccc2)c(=O)[nH]c1=O | 6.51 µM [falling, single point] | – | 4.26 |
| Cc1ccc(-c2nnc(Nc3ccc(C(=O)N(C)C)cc3)c3ccccc23)cc1S(N)(=O)=O | 29.1 µM [rising, partial curve] | – | -15.3 |
| N/C(=C/C(=O)c1ccccc1O)C(F)(F)F | 0.82 µM [falling, single point] | – | -15.7 |
| Cc1cc(N2CCCCC2)nc(NCc2ccccc2)n1 | 18.4 µM [falling, partial curve, poor fit] | 29.1 µM [falling, partial curve, poor fit] | -41.6 |
| CC(=O)Nc1ccc(S(=O)(=O)N(C)CC(=O)Nc2ccc(F)c(F)c2F)cc1 | 2.31 µM [rising, partial curve, poor fit] | – | 13.7 |
| O=C(O)CC(NC(=O)COc1ccc(Cl)cc1Cl)C(=O)O (centres undefined) | – | – | 0.607 |
| Cc1ccc[n+](C(C)C(=O)Nc2ccc([N+](=O)[O-])cc2C)c1 (centres undefined) | – | 29.1 µM [rising, single point] | 35.2 |
| CC(=O)N1CCCc2cc(S(=O)(=O)NC(C(=O)NC(C)c3ccccc3)C(C)C)ccc21 (centres undefined) | – | – | -11 |
| COCc1cc(=O)n2[nH]c(C)nc2n1 | – | – | -26.2 |
| COc1ccc(CC(=O)Nn2c(-c3ccccc3)nc3ccccc3c2=O)cc1 | 9.2 µM [falling, partial curve, poor fit] | 18.4 µM [falling, partial curve, poor fit] | -31.4 |

Structures listed so far with an NH in an aromatic ring (ten):

| Compound | AC50 [1] | AC50 [2] | cell number change [%] |
| --- | --- | --- | --- |
| Cc1cc(=O)[nH]c(SCC(=O)N2CCCC(C)C2)n1 (centres undefined) | 1.16 µM [falling, partial curve, poor fit] | – | – |
| CC(=O)Nc1ccc(N(C(=O)Cc2c[nH]c3ccccc23)C(C(=O)NC2CCCCC2)c2ccco2)cc1 (centres undefined) | – | 0.92 µM [falling, full curve, poor fit] | -37.4 |
| COc1ccc(NC(=O)c2[nH]c(C)c(C(C)=O)c2C)cc1S(=O)(=O)N1CCOCC1 | 0.651 µM [falling, full curve, poor fit] | – | -12.3 |
| O=C(NCc1cccc2[nH]ccc12)C1CCC(=O)N(CCc2ccc(Cl)cc2)C1 (centres undefined) | 0.366 µM [falling, full curve, poor fit] | – | 1.39 |
| COCCN(C(=O)C1CC(=O)N(Cc2ccc(C)cc2)C1)c1c(N)n(CC(C)C)c(=O)[nH]c1=O (centres undefined) | 14.6 µM [falling, partial curve, poor fit] | 0.058 µM [falling, full curve, poor fit] | -6.28 |
| NC(=O)N=Nc1c2[nH]c3ccccc3nc-2c2ccccc12 | 5.8 µM [rising, single point] | 0.366 µM [rising, full curve, poor fit] | 10.9 |
| CCCc1n[nH]c2c1/C(=N/O)CC(c1ccccc1)C2 (centres undefined) | – | 3.66 µM [rising, partial curve] | – |
| CCCCCCc1c(O)nc(SCCN(C)C)[nH]c1=O | – | – | -34.2 |
| COCCN(C(=O)c1cc(Cl)ccn1)c1c(N)n(Cc2ccccc2)c(=O)[nH]c1=O | 6.51 µM [falling, single point] | – | 4.26 |
| COCc1cc(=O)n2[nH]c(C)nc2n1 | – | – | -26.2 |
